{"source": "paper PMC3661451", "binders": {"B1": {"name": "DprA (BD-dprA fusion, pGBDUC2-dprA) (protein, UniProt Q8DPI7 1-282)", "chain": "MKITNYEIYKLKKSGLTNQQILKVLEYGENVDQELLLGDIADISGCRNPAVFMERYFQIDDAHLSKEFQKFPSFSILDDCYPWDLSEIYDAPVLLFYKGNLDLLKFPKVAVVGSRACSKQGAKSVEKVIQGLENELVIVSGLAKGIDTAAHMAALQNGGKTIAVIGTGLDVFYPKANKRLQDYIGNDHLVLSEYGPGEQPLKFHFPARNRIIAGLCRGVIVAEAKMRSGSLITCERAMEEGRDVFAIPGSILDGLSDGCHHLIQEGAKLVTSGQDVLAEFEF"}}, "key": {"[1]": {"target": "RecA (AD-recA fusion, pACT2-recA) (Streptococcus pneumoniae)", "assay": "two-hybrid; yeast two-hybrid, GAL1-HIS3 reporter; same diploids; growth on SD-Ura-Leu-His + 1 mM 3AT and + 3 mM 3AT, 26°C, a week"}, "[2]": {"target": "ComD (AD-comD fusion, pACT2-comD) (Streptococcus pneumoniae)", "assay": "two-hybrid; yeast two-hybrid, GAL1-HIS3 reporter; BD-dprA (pGBDUC2) with AD fusions (pACT2) in diploids; growth on SD-Ura-Leu-His without 3AT, 26°C, up to 7 days"}, "[3]": {"target": "ComX (AD-comX fusion, pACT2-comX) (Streptococcus pneumoniae)", "assay": "two-hybrid; yeast two-hybrid, GAL1-HIS3 reporter; BD-dprA (pGBDUC2) with AD fusions (pACT2) in diploids; growth on SD-Ura-Leu-His without 3AT, 26°C, up to 7 days"}, "[4]": {"target": "RecA (AD-recA fusion, pACT2-recA) (Streptococcus pneumoniae)", "assay": "two-hybrid; yeast two-hybrid, GAL1-HIS3 reporter; BD-dprA (pGBDUC2) with AD fusions (pACT2) in diploids; growth on SD-Ura-Leu-His without 3AT, 26°C, up to 7 days"}}, "note": "No constants are given. Whether binding was seen depends on the method and setting. For some of these results: Binding can be weak; no strength is given. Where a sequence is shown, tags or fusion partners need not be part of it.", "data": [{"binder": "B1", "values": [{"measurement": "binding", "setting": "[1]", "value": "no binding (only with 1 mM or 3 mM 3AT)"}, {"measurement": "binding", "setting": "[2]", "value": "no binding"}, {"measurement": "binding", "setting": "[3]", "value": "no binding"}, {"measurement": "binding", "setting": "[4]", "value": "binds"}]}]}
